Reference: PubChem BioAssay AID540276 (National Center for Advancing Translational Sciences (NCATS), 2011)
“And” between values parts separate entries of the source, which are not always exact repeats. Identical values can stand only once. Among all 300,000 compounds or so, about 5,400 (1.8%) were called active. Inconclusive results, whose numbers are uncertain, are shown with a selection of clear calls. The call rests on the fitted dose curve; tested in HEK293 cells. Potencies of inconclusive entries are doubtful fits and often do not repeat.

assay: qHTS for inhibitors of binding or entry into cells for Marburg Virus; conditions: Marburg virus pseudotyped entry inhibition, cell reporter; activity change, negative = inhibition: at 37.8 µM (top of the series) unless noted
On the % scale 0 is the no-effect control and ±100 the full control effect; potency means the concentration at half of the fitted maximal effect.

Compound	Potency	activity change, negative = inhibition
CC(=O)N(C1=NCCCS1)c1ccc(Cl)cc1	inconclusive: 22.4 µM [inhibitor, single point]	
O=C(CSc1ncnc2sc3c(c12)CCCC3)c1ccco1	inconclusive: 35.5 µM [inhibitor, single point]	
C[C@]12CC[C@@H]3c4ccc(OC(=O)N(CCCl)CCCl)cc4CC[C@H]3[C@@H]1CC[C@@H]2O	inconclusive: 22.3 µM [activator, partial curve, poor fit]	
COc1ccc(C(=O)N2CCc3cc(OC)c(OC)cc3C2)cc1OC	inconclusive: 3.26 µM [inhibitor, partial curve, poor fit]	
CC(C)n1c(NCc2ccccc2O)nc2ccccc21		inactive: 12.2% [at 46.1 µM]
COc1nccnc1NS(=O)(=O)c1ccc(NC(=S)NC(=O)c2ccccc2)cc1	inconclusive: 5.62 µM [activator, single point]	
Cc1ccc(N(CC(=O)NC2CCCC2)C(=O)CCCC(=O)Nc2ccccn2)cc1C		inactive: -18.2%
COc1cc(OC)c(NS(=O)(=O)c2cc(C(=O)OC(C)C(=O)NC3CC3)c(Cl)cc2Cl)cc1Cl (configuration not stated)	inactive and inconclusive: 5.62 µM [inhibitor, single point]	
CCOC(=O)c1cc(-c2csc(-c3ccc(C(F)(F)F)cc3)n2)on1	inconclusive: 0.891 µM [inhibitor, single point]	
Cc1ccc(N2C(=O)CC(N3CCc4ccccc43)C2=O)cc1Cl (configuration not stated)	inconclusive: 5.62 µM [activator, single point]	
COc1cccc(CNC(=O)Cn2ccc3cc(S(=O)(=O)N4CCCC4)ccc32)c1	inactive	
CCNC(=S)N/N=C(\C)c1cccc([N+](=O)[O-])c1	inconclusive: 8.91 µM [inhibitor, partial curve, poor fit]	
O=C(Cc1cccs1)Nc1nnc(SCc2ccc(F)cc2)s1	inconclusive: 3.98 µM [activator, partial curve, poor fit]	
N#CC1CN(Cc2ccccc2)CN(Cc2ccccc2)C1	inconclusive: 7.08 µM [inhibitor, full curve, poor fit]	
O=C(CCc1ccccc1)n1nc(-c2ccccc2)nc1NCc1ccco1	inconclusive: 14.6 µM [activator, partial curve, poor fit]	
COc1ccc(C)cc1S(=O)(=O)NCC(c1ccc2c(c1)OCO2)N1CCN(C)CC1 (configuration not stated)	inconclusive: 11.2 µM [inhibitor, partial curve, poor fit]	
Fc1ccccc1COc1ccccc1/C=N/Nc1nc(N2CCCC2)nc(N2CCCC2)n1	inconclusive: 0.58 µM [inhibitor, partial curve]	
